Experiment: Effect of pH, temperature and oxygen on HmfF decarboxylation activity (UV-vis)

B1: P. thermopropionicum HmfF: HmfF enzyme (2,5-furandicarboxylic acid decarboxylase) of SEQ ID NO:1 from the thermophilic bacterium Pelotomaculum thermopropionicum (protein, listed as Pelotomaculum thermopropionicum)
chain: MSHSLREWLAFLEGKGKLKRVRKEVDPVFEIAALGKQADGICSLLFERVKGYAVPVVTGLAGDRELFAAAMSVPVEGMLEKLAAAVENPVPCRLVSPDGAPVKECIIRENIDLLKMLPIPTHHAGDAGPYITAAILIARDPDSGVRNVSIHRLQVTGPDRLGILILPRHLWHFFGKAERAGRPLEIALAIGVHPAVLLASQATTRLGVDELEIASALLPQPLELVKCETVDVEVPAGAEIVIEGKILPGVREVEGPFGEYPRYYGPAAPRPVVEVTAVTHRRQPVYHTIIPASREHLLLGGIAREAVLLQTVRQAVPTVKNVHLTPGGSCRYHAVISIEKKHEGEAKNAIFAAFTSSSEVKHVVVVDHEINIFDPEEVEWAVATRCQAGRDVFIVKDAMGNRLDPSSRDGVSDKMGIDATIPLNLPGERFERISIPGLDKIKLADYLE
With B1 the “temperature at and above which rates decrease rapidly (enzyme inactivated)” value (FDCA decarboxylation) was ≥ 55 °C and the “HmfF activity under aerobic conditions” value (aerobic conditions) was “rapidly decrease”.
